Data published in PubChem BioAssay AID493014 (National Center for Advancing Translational Sciences (NCATS), 2011).
This is one part of the list. The main result of the screen is listed elsewhere. These columns were measured beside it and carry no call. The list favours compounds with an active or inconclusive main result. Potencies come from curve fits of mixed quality, noted in brackets.

Assay: qHTS Assay to Find Inhibitors of Chronic Active B-Cell Receptor Signaling
Conditions: ABC-DLBCL IkBa-CBG/CBR reporter, luminescence ratio (green luciferase fused to IkBa over red control in TMD8 lymphoma cells), 4 h
How it was run: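 TMD8 human ABC-DLBCL cells with doxycycline-inducible IκBα–green luciferase fusion and unfused red luciferase, in 0.5% FBS medium; compounds up to 46 uM, 4 h at 37C. Green/red luminescence ratio, filter-overlap corrected, fitted to concentration-response curves.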

[1] = measured here: CBR red luminescence, cell number
[2] = measured here: IkBa-CBG green luminescence

Compound	AC50 [1]	AC50 [2]
COc1cccc(Nc2nc3cc(C)ccc3nc2NS(=O)(=O)c2ccc(Cl)cc2)c1	2.51 µM [falling, partial curve, poor fit]	
NC1=NC(c2cn(-c3ccccc3)nc2-c2cccs2)n2c(nc3ccccc32)N1 (stereo not drawn)	23.1 µM [rising, partial curve, poor fit]	
Cc1ccc(NC(=O)CN2CCc3cc4c(cc3C2C)OCCCO4)cc1 (stereo not drawn)	22.4 µM [falling, single point]	
Clc1ccc(-c2cnc3ccccc3n2)cc1	2.59 µM [rising, full curve, poor fit]	
CC(=O)C1C(=O)c2c(cccc2[N+](=O)[O-])C1=Nc1cccc(Cl)c1 (stereo not drawn)	12.6 µM [falling, single point]	
Cc1c(CCC(=O)N[C@@H](CCCNC(N)=O)C(=O)O)c(=O)oc2cc3oc4c(c3cc12)CCCC4	25.1 µM [rising, partial curve, poor fit]	7.94 µM [falling, partial curve, poor fit]
COC(=O)c1ccc(/C=C(\C#N)c2ccccn2)cc1	1.26 µM [rising, partial curve, poor fit]	
CCn1c(SCC(=O)Nc2oc(-c3ccccc3)c(-c3ccccc3)c2C#N)nnc1-c1cc(OC)cc(OC)c1	0.103 µM [falling, full curve, poor fit]	
O=C(COc1ccc2ccccc2c1Br)N1CCOCC1	20.6 µM [rising, partial curve, poor fit]	
Cc1[nH]c2ccccc2c1/C=N/NC(=O)c1cccc(S(=O)(=O)Nc2cccc(C(F)(F)F)c2)c1	22.4 µM [falling, single point]	
Cc1ccc(C(=O)Nc2ccc(C(=O)O)cc2)cc1S(=O)(=O)NCc1ccccc1	3.16 µM [rising, full curve, poor fit]	
CC1(C)Cc2c(C#N)c(N3CCN(C(=O)c4ccccc4)CC3)nc(Cc3ccccc3)c2CO1	1.84 µM [falling, partial curve, poor fit]	
COCCN(CCOC)c1cc(C)c(C#N)c2nc3ccccc3n12	0.00411 µM [rising, full curve, poor fit]	
CC(=O)Nc1cc2nn(-c3ccccc3)nc2cc1Cl	2.59 µM [rising, full curve, poor fit]	
COc1ccc(C)cc1C(=O)CCC(=O)Nc1ccccc1N1CCOCC1	29.1 µM [falling, single point]	
CCC(Sc1nc(C)cc(=O)[nH]1)C(=O)Nc1nc(-c2ccccc2)cs1 (stereo not drawn)	14.6 µM [falling, partial curve, poor fit]	5.8 µM [rising, partial curve, poor fit]
COc1ccc(/C=C2\Oc3cc(OCC(N)=O)ccc3C2=O)cc1OC	6.31 µM [falling, single point]	
CCn1ncc(Br)c1C(=O)Nc1ccc(OC(F)(F)F)cc1	14.1 µM [rising, single point]	
CC(C)Oc1ccc(C(=O)/C=C2/C(=O)Nc3ccccc32)cc1	31.6 µM [rising, single point]	35.5 µM [falling, single point]
COc1ccc(C(=O)N2CCN(C3CCCCC3)CC2)cc1OC	3.55 µM [falling, full curve]	
COc1ccc(-c2cc(C(=O)Nc3cc(C)ccc3O)no2)cc1	1.41 µM [falling, partial curve, poor fit]	
Cc1ccc(C(C#N)c2ccc(Cl)nn2)cc1 (stereo not drawn)	11.2 µM [falling, partial curve, poor fit]	15.8 µM [rising, partial curve, poor fit]
CCCCNC(=O)/C=C/c1ccc(OC)c(Br)c1	13 µM [rising, partial curve]	
CC(=O)c1ccc(OCC(O)Cn2nnc3ccccc32)cc1 (stereo not drawn)	3.55 µM [rising, partial curve]	
O=C(CCCn1c(SCc2cccc(F)c2)nc2ccccc2c1=O)NCC1CCCO1 (stereo not drawn)	0.0708 µM [falling, full curve, poor fit]	
CCC1CCCCN1C(=O)COC(=O)c1cc(=O)[nH]c2ccccc12 (stereo not drawn)	25.9 µM [rising, single point]	
Nc1[nH]n2c(=O)cc(-c3ccccc3)nc2c1N=Nc1ccc2c(c1)OCO2	6.31 µM [falling, partial curve, poor fit]	
CCOc1ccc(NC(=O)c2ccco2)cc1	18.4 µM [falling, single point]	
CCC1=C/C(=C/c2sc3ccccc3[n+]2CC)CC(C)(C)C1	11.2 µM [falling, partial curve, poor fit]	

2 neighbouring records from above, quoted:
Compound	AC50 [1]	AC50 [2]
Cc1ccc(NC(=O)CN2CCc3cc4c(cc3C2C)OCCCO4)cc1 (stereo not drawn)	22.4 µM [falling, single point]	
Clc1ccc(-c2cnc3ccccc3n2)cc1	2.59 µM [rising, full curve, poor fit]	
